For at least one compound, name, drawing or mass did not settle the structure.
Test system: LNCap
Experiment: XTT cell proliferation assay (growth inhibition)
Assay type: cell-based, human
Details: inhibitor pretreatment, then protoapigenone for 12 hours
Experimental: Cells were seeded at 7×10^3 per well in 96-well culture plates before treatment with different concentrations of protoapigenone for 12, 24 and/or 48 hours. Next, the cytotoxicity of protoapigenone was determined using XTT cell proliferation assay (Sigma, St. Louis, Mo.). The absorbance of wavelength at 490 nm (OD490) and 650 nm (OD650) were determined respectively by enzyme-linked immunosorbent assay (ELISA) reader, and 50% of inhibitory concentration (IC50) was calculated by the value of OD490-OD650. In addition, in order to evaluate the long-term effect, the cells were treated with different concentration of protoapigenone for 3 hours, then were incubated with fresh medium for 14 days so as to form colonies. Finally, the cells were stained with crystal violet and were observed under the microscope.

With `Oc1c2ccccc2c2c3c(cccc13)N=N2` [SP600125] the “survival rate of LNCap cells vs cells only treated with protoapigenone” value was “higher”.

— patent US20100062078A1, “PHARMACEUTICAL COMPOSITION FOR TREATING CANCER AND THE SIGNALING PATHWAY THEREOF” (priority 2008, published 2010)
